These are yes or no findings as the source states them, for the method shown. For some assays here: Binding seen in cells or lysates may run through a third protein. Some binding calls cover weakened binding; strength is not graded here.

Chains of the proteins cited; added tags and fusions are not shown. Lines headed by an entry give the natural chain unless they say otherwise; changes in a name come on top. Residues count along the entry.
UniProt Q8IZU9: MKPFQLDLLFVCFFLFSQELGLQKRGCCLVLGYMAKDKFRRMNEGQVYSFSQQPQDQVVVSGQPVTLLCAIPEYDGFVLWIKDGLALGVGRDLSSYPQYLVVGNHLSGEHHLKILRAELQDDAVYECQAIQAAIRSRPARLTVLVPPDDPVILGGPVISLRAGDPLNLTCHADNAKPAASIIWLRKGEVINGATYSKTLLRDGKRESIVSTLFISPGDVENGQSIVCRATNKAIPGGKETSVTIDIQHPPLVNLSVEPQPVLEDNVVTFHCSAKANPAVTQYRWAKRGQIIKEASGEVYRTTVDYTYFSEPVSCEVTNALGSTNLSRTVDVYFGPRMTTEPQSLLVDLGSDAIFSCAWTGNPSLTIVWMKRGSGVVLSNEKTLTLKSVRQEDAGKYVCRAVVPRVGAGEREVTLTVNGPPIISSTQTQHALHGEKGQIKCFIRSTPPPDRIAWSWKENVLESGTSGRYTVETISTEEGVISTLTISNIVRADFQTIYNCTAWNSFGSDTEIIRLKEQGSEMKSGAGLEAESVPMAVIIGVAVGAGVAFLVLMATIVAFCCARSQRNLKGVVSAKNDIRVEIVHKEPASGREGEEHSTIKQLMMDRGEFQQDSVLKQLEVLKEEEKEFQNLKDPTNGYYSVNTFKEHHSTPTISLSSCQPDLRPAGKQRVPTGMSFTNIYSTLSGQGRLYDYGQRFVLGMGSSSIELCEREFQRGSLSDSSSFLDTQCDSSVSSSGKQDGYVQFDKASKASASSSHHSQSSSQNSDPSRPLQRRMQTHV
UniProt O14745: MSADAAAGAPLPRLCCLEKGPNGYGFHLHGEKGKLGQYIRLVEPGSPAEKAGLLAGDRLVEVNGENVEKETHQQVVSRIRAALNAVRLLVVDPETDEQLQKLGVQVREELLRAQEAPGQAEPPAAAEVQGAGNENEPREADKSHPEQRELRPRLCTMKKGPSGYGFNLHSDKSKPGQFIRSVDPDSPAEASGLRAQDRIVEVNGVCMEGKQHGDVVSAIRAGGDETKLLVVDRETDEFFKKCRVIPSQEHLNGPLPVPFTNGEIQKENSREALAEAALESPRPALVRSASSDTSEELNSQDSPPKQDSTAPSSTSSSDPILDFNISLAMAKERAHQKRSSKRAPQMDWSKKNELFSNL
UniProt P57082: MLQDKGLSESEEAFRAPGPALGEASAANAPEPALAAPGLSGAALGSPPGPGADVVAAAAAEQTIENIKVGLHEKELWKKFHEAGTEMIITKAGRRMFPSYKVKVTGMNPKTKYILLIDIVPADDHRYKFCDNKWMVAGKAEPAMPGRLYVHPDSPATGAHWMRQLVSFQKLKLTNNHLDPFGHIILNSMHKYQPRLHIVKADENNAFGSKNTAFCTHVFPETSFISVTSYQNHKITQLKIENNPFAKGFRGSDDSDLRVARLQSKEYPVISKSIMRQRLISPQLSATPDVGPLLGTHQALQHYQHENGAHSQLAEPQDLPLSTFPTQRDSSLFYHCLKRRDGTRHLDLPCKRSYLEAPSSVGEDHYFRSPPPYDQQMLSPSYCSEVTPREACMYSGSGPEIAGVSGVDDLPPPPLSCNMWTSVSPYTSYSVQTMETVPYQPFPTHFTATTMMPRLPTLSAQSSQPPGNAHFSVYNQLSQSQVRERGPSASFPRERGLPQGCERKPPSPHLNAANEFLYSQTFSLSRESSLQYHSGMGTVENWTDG
UniProt Q969S3: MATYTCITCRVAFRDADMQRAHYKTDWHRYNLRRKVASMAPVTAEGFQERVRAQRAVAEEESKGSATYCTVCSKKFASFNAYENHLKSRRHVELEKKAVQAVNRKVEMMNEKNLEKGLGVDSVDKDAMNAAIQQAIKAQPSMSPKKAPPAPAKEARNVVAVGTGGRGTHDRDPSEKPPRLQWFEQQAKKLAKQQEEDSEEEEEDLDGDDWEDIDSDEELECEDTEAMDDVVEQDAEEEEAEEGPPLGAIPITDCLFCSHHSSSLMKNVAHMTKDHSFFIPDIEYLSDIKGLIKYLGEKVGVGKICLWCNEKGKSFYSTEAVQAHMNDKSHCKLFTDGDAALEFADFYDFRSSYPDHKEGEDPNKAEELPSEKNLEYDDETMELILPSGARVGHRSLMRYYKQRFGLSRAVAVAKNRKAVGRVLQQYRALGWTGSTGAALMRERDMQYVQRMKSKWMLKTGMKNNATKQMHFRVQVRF
UniProt A6ND36: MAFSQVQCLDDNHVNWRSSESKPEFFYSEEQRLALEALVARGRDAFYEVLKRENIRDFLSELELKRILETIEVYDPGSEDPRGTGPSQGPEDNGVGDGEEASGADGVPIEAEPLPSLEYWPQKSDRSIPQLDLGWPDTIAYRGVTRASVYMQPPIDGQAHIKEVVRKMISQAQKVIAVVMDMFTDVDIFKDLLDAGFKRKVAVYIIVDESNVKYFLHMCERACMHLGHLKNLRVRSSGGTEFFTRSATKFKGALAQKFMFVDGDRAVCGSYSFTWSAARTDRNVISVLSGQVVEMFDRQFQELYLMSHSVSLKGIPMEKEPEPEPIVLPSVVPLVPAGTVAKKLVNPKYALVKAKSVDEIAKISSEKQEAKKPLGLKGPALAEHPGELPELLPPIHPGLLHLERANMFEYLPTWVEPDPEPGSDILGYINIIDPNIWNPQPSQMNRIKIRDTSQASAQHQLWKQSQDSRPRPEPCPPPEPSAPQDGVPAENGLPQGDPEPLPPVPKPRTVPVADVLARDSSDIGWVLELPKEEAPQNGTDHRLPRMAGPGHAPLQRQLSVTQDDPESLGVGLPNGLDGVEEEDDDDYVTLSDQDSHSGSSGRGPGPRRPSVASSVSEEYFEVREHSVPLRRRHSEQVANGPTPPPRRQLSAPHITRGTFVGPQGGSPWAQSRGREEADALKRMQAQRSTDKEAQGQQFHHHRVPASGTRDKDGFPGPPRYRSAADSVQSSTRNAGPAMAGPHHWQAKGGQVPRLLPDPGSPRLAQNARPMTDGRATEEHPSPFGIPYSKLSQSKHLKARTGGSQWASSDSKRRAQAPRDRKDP
UniProt P35240, residues 22-312: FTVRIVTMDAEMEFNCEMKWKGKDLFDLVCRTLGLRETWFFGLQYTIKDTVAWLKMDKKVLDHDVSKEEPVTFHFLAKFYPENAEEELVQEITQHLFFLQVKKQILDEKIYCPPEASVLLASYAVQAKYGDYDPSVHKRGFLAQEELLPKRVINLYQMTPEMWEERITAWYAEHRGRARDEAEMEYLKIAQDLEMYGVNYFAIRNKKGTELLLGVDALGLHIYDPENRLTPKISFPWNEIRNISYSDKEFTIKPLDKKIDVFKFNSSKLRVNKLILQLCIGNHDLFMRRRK
UniProt P15311, residues 2-296: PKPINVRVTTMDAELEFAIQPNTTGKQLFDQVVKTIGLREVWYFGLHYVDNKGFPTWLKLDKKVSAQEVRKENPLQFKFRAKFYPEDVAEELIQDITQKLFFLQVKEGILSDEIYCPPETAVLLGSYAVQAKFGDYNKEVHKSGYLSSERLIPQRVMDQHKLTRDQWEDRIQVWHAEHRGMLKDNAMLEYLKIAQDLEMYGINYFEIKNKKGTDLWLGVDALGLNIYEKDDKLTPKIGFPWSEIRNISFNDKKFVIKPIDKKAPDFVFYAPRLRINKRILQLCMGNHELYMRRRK
UniProt Q16665: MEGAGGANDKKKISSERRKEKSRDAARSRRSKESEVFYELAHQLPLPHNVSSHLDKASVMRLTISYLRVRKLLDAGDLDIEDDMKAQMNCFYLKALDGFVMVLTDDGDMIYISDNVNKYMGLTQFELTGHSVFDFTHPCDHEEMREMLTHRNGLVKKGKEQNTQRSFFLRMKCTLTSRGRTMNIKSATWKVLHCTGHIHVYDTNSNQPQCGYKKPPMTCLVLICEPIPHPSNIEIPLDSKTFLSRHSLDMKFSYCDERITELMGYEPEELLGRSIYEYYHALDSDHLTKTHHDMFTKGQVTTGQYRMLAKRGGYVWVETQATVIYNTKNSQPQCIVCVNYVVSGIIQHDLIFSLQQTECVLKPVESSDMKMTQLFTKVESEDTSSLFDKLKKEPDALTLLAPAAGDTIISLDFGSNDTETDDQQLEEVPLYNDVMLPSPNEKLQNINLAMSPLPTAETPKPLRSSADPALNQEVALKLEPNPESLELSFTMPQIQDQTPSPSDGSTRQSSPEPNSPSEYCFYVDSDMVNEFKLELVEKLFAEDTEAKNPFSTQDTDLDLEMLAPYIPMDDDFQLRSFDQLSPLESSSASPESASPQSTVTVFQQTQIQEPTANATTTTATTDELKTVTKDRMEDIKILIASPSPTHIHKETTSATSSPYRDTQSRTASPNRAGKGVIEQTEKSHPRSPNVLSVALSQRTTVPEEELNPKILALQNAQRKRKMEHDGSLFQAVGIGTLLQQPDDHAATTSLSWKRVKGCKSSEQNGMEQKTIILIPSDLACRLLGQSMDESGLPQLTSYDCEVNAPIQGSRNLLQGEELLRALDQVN
UniProt Q9NQU5: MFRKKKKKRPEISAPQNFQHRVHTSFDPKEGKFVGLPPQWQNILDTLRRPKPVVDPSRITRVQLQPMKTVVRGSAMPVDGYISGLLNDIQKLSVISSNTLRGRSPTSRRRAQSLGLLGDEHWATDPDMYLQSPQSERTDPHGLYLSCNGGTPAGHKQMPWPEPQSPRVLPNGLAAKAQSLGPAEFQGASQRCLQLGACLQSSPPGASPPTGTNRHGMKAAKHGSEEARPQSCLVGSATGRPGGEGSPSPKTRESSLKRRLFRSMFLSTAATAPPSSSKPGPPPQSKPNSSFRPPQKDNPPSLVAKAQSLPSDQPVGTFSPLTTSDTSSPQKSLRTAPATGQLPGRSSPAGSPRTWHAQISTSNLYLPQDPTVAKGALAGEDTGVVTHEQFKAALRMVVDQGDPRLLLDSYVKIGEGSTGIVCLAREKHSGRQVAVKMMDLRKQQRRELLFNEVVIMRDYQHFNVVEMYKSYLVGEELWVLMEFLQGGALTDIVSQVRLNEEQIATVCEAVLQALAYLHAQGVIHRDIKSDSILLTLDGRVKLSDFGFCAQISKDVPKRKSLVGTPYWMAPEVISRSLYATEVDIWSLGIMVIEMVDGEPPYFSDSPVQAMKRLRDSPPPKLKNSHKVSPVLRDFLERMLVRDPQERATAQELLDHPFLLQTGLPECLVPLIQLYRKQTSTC

Assay [1] addresses T1, FITC-KIRREL3(637–652) peptide (human) (UniProt Q8IZU9).
T1 sequence (peptide, FITC label (position not stated)): YYSVNTFKEHHSTPTI
Nature of the assay: fluorescence polarisation; competition: precomplex of FERM domain (2 x KD) and FITC-KIRREL3(637–652) probe, titrated with unlabeled peptide; constants printed as KD′; FP buffer; both purified.

Assay [2] deals with T2, FITC-EBP50(348–358) peptide (UniProt O14745).
T2 sequence (peptide, FITC label (position not stated)): WSKKNELFSNL
Nature of the assay: fluorescence polarisation; direct binding: 5 nM FITC-labeled probe peptide titrated with FERM domain; 20 mM HEPES pH 7.4, 150 mM NaCl, 0.05% Tween-20, 3 mM DTT; quadratic equation for 1:1 binding; both purified. A general note: Fluorescence polarisation rises when a labelled molecule tumbles more slowly, as on binding a larger partner.

Assay [3] concerns the target T1, FITC-KIRREL3(637–652) peptide (human). Described as above.
Assay [4] deals with T3, FITC-TBX4(428–443) peptide (human) (UniProt P57082).
T3 sequence (peptide, FITC label (position not stated)): SYSVQTMETVPYQPFP
Described as above.

Assay [5] addresses T4, FITC-LATS1(73–88) peptide (human).
T4 sequence (peptide, FITC label (position not stated)): THHKALQEIRNSLLPF
The description is as above.

The target of assay [6] is T5, FITC-NOP53(192–207) peptide (human).
T5 sequence (peptide, FITC label (position not stated)): FYDLWASDNPLDRPLV
The assay is described as above.

Assay [7] has as its target T6, FITC-ZNF622(341–356) peptide (human) (UniProt Q969S3).
T6 sequence (peptide, FITC label (position not stated)): LEFADFYDFRSSYPDH
Described as above.

Assay [8] has as its target T7, FITC-FAM83G(111–126) peptide (human) (UniProt A6ND36).
T7 sequence (peptide, FITC label (position not stated)): AEPLPSLEYWPQKSDR
The assay is described as above.

Assay [9] has as its target GST-tagged merlin FERM domain (human) (UniProt P35240). Description: pull-down; GST-tagged moesin or merlin FERM domain mixed with lysate of transfected HEK293 cells (0.5 mg protein) and GSH magnetic beads, GFP-Trap or anti-FLAG M2 beads, overnight 4 °C; 50 mM Tris-HCl pH 7.4, 150 mM NaCl, 0.5% NP-40; immunoblot; only the target purified. Background: Immunoblotting shows a protein as a band on a membrane.

The target in assay [10] is GST-tagged moesin FERM domain (UniProt P26038). The description is as above.
Assay [11] concerns the target T6, FITC-ZNF622(341–356) peptide (human). Nature of the assay: fluorescence polarisation; competition: precomplex of moesin FERM and FITC-ZNF622 probe, titrated with unlabeled peptide; constants printed as KD′; FP buffer (for HIF1A the text names FITC-NOP53 as probe, the table's footnote FITC-ZNF622); both purified.
Assay [12] deals with T2, FITC-EBP50(348–358) peptide. Nature of the assay: fluorescence polarisation; direct binding of FITC-labeled probe peptide titrated with moesin FERM in the presence of a saturating concentration of unlabeled peptide (80–150 μM); FP buffer; both purified.
In assay [13] the target is T1, FITC-KIRREL3(637–652) peptide (human). The description is as above.
The target in assay [14] is T3, FITC-TBX4(428–443) peptide (human). The assay is described as above.
In assay [15] the target is T6, FITC-ZNF622(341–356) peptide (human). The description is as above.

Turning to “ezrin FERM domain (as used in FP) (from UniProt P15311 2-296) (domain or fragment)”, the binding entry in [1], in assay [2], in assay [3], in assay [4], in assay [5] and in assay [6] was “binds” each time. Further, the binding result in assay [7] and in assay [8] was “binds” throughout.
On to “full-length HIF1A (from UniProt Q16665 1-826)”, for which the binding result in [9] is “no binding”; in assay [10], “binds”.
As to “full-length PAK6 (from UniProt Q9NQU5 1-681)”, the binding entry in assay [9] is “binds”.
On to “merlin FERM domain (from UniProt P35240 22-312) (domain or fragment)”, for which the binding result in assay [3] and in [4] was “no binding” each time.
As to “moesin FERM domain (from UniProt P26038 2-295) (domain or fragment)”, the binding result in [1], in assay [2], in assay [3], in assay [4], in assay [5] and in assay [6] was “binds” each time. The binding result in assay [7], in assay [8], in [11], in assay [12], in assay [13] and in assay [14] was “binds” each time. Also, the binding result in assay [15] is “binds”.

The values above are taken from publication PMC10249358, “Elucidation of Short Linear Motif-Based Interactions of the FERM Domains of Ezrin, Radixin, Moesin, and Merlin” (Biochemistry, 2023).
